The supplement of paper PMC8728848
Some of the results follow.

Tests used:
Assay in all cases: glycan array binding signal (z-score within array); higher = stronger binding
Conditions in all cases: glycan notation: IUPAC condensed, linker removed
[1] = target: GlcNAc(b1-4)GlcNAc(b1-4)GlcNAc
Procedure, shortened: (§1)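 Negative Z-scores can be read as non-binding. The Z-score is calculated within each array and then averaged across arrays of one protein sequence at different concentrations or buffers and across linkers. Arrays, 3228 in all, were curated from the Consortium for Functional Glycomics database and kept only where the protein sequence was available.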

[2] = target: GlcNAc(b1-4)GlcNAc(b1-4)GlcNAc(b1-4)GlcNAc(b1-4)GlcNAc
Procedure, shortened: as §1

[3] = target: GlcNAc(b1-4)GlcNAc(b1-4)GlcNAc(b1-4)GlcNAc(b1-4)GlcNAc(b1-4)GlcNAc
Procedure, shortened: as §1

[4] = target: GlcNAc(b1-4)[GlcNAc(b1-6)]GalNAc
Procedure, shortened: as §1

[5] = target: GlcNAc(b1-6)Gal(b1-4)GlcNAc
Procedure, shortened: as §1

[6] = target: GlcNAc(b1-6)GalNAc
Procedure, shortened: as §1

[7] = target: GlcNAc3Prop(b1-4)GlcNAc
Procedure, shortened: as §1

[8] = target: GlcNAc6S(b1-3)Gal(b1-4)GlcNAc
Procedure, shortened: as §1

[9] = target: Kdn(a2-3)Gal(b1-3)GalNAc
Procedure, shortened: as §1

[10] = target: Kdn(a2-3)Gal(b1-3)GlcNAc
Procedure, shortened: as §1

[11] = target: Kdn(a2-3)Gal(b1-4)Glc
Procedure, shortened: as §1

[12] = target: Kdn(a2-3)Gal(b1-4)GlcNAc
Procedure, shortened: as §1

[13] = target: Kdn(a2-3)Gal(b1-4)[Fuc(a1-3)]GlcNAc
Procedure, shortened: as §1

[14] = target: Kdn(a2-6)Gal(b1-4)GlcNAc
Procedure, shortened: as §1

[15] = target: Man(a1-2)Man(a1-2)Man(a1-3)Man
Procedure, shortened: as §1

[16] = target: Man(a1-2)Man(a1-2)Man(a1-6)[Man(a1-3)]Man
Procedure, shortened: as §1

[17] = target: Man(a1-2)Man(a1-3)Man
Procedure, shortened: as §1

[18] = target: Man(a1-2)Man(a1-3)[Man(a1-2)Man(a1-6)]Man
Procedure, shortened: as §1

[19] = target: Man(a1-2)Man(a1-3)[Man(a1-2)Man(a1-6)]Man(a1-6)[Man(a1-2)Man(a1-2)Man(a1-3)]Man
Procedure, shortened: as §1

[20] = target: Man(a1-2)Man(a1-3)[Man(a1-2)Man(a1-6)]Man(a1-6)[Man(a1-2)Man(a1-2)Man(a1-3)]Man(b1-4)GlcNAc(b1-4)GlcNAc
Procedure, shortened: as §1

[21] = target: Man(a1-2)Man(a1-3)[Man(a1-6)]Man(a1-6)[Man(a1-2)Man(a1-3)]Man(b1-4)GlcNAc(b1-4)GlcNAc
Procedure, shortened: as §1

[22] = target: Man(a1-2)Man(a1-6)[Man(a1-3)]Man(a1-6)[Man(a1-2)Man(a1-2)Man(a1-3)]Man
Procedure, shortened: as §1

[23] = target: Man(a1-2)Man(a1-6)[Man(a1-3)]Man(a1-6)[Man(a1-2)Man(a1-2)Man(a1-3)]Man(b1-4)GlcNAc(b1-4)GlcNAc
Procedure, shortened: as §1

[24] = target: Man(a1-3)[Man(a1-6)]Man
Procedure, shortened: as §1

[25] = target: Man(a1-3)[Man(a1-6)]Man(a1-6)[Man(a1-2)Man(a1-3)]Man(b1-4)GlcNAc(b1-4)GlcNAc
Procedure, shortened: as §1

[26] = target: Man(a1-3)[Man(a1-6)]Man(a1-6)[Man(a1-3)]Man
Procedure, shortened: as §1

[27] = target: Man(a1-3)[Man(a1-6)]Man(a1-6)[Man(a1-3)]Man(b1-4)GlcNAc(b1-4)GlcNAc
Procedure, shortened: as §1

[28] = target: Man(a1-3)[Man(a1-6)]Man(b1-4)GlcNAc(b1-4)GlcNAc
Procedure, shortened: as §1

[29] = target: Man(a1-6)Man
Procedure, shortened: as §1

[30] = target: Man(b1-4)GlcNAc
Procedure, shortened: as §1

[31] = target: Neu5Ac(a2-3)Gal
Procedure, shortened: as §1

[32] = target: Neu5Ac(a2-3)Gal(b1-3)GalNAc
Procedure, shortened: as §1

[33] = target: Neu5Ac(a2-3)Gal(b1-3)GalNAc(b1-3)Gal(a1-4)Gal(b1-4)Glc
Procedure, shortened: as §1

[34] = target: Neu5Ac(a2-3)Gal(b1-3)GalNAc(b1-4)[Neu5Ac(a2-3)]Gal(b1-4)Glc
Procedure, shortened: as §1

[35] = target: Neu5Ac(a2-3)Gal(b1-3)GalNAc(b1-4)[Neu5Ac(a2-8)Neu5Ac(a2-3)]Gal(b1-4)Glc
Procedure, shortened: as §1

[36] = target: Neu5Ac(a2-3)Gal(b1-3)GalNAc6S
Procedure, shortened: as §1

[37] = target: Neu5Ac(a2-3)Gal(b1-3)GlcNAc
Procedure, shortened: as §1

[38] = target: Neu5Ac(a2-3)Gal(b1-3)GlcNAc(b1-3)Gal(b1-3)GlcNAc
Procedure, shortened: as §1

[39] = target: Neu5Ac(a2-3)Gal(b1-3)GlcNAc(b1-3)Gal(b1-4)GlcNAc
Procedure, shortened: as §1

[40] = target: Neu5Ac(a2-3)Gal(b1-3)GlcNAc(b1-3)GalNAc
Procedure, shortened: as §1

B1: DCL-1 (Homo sapiens), Q8IX05 (protein)
chain: MLRAALPALLLPLLGLAAAAVADCPSSTWIQFQDSCYIFLQEAIKVESIEDVRNQCTDHGADMISIHNEEENAFILDTLKKQWKGPDDILLGMFYDTDDASFKWFDNSNMTFDKWTDQDDDEDLVDTCAFLHIKTGEWKKGNCEVSSVEGTLCKTAIPYKRKYLSDNHILISALVIASTVILTVLGAIIWFLYKKHSDSRFTTVFSTAPQSPYNEDCVLVVGEENEYPVQFD
- glycan array binding signal (z-score) [1]: -0.503
- glycan array binding signal (z-score) [2]: -0.519
- glycan array binding signal (z-score) [3]: 0.08
- glycan array binding signal (z-score) [4]: -0.48
- glycan array binding signal (z-score) [5]: -0.008
- glycan array binding signal (z-score) [6]: -0.659
- glycan array binding signal (z-score) [7]: -0.813
- glycan array binding signal (z-score) [8]: -1.26
- glycan array binding signal (z-score) [9]: 0.017
- glycan array binding signal (z-score) [10]: -0.584
- glycan array binding signal (z-score) [11]: -0.493
- glycan array binding signal (z-score) [12]: -0.12
- glycan array binding signal (z-score) [13]: -1.07
- glycan array binding signal (z-score) [14]: 0.047
- glycan array binding signal (z-score) [15]: -0.704
- glycan array binding signal (z-score) [16]: -0.826
- glycan array binding signal (z-score) [17]: -0.662
- glycan array binding signal (z-score) [18]: -0.811
- glycan array binding signal (z-score) [19]: 0.35
- glycan array binding signal (z-score) [20]: 2.43
- glycan array binding signal (z-score) [21]: 0.13
- glycan array binding signal (z-score) [22]: -0.485
- glycan array binding signal (z-score) [23]: 1.01
- glycan array binding signal (z-score) [24]: -0.463
- glycan array binding signal (z-score) [25]: 10.6
- glycan array binding signal (z-score) [26]: 0.819
- glycan array binding signal (z-score) [27]: -0.104
- glycan array binding signal (z-score) [28]: 1
- glycan array binding signal (z-score) [29]: 0.664
- glycan array binding signal (z-score) [30]: 1.61
- glycan array binding signal (z-score) [31]: -0.032
- glycan array binding signal (z-score) [32]: -0.514
- glycan array binding signal (z-score) [33]: 3.04
- glycan array binding signal (z-score) [34]: -1.36
- glycan array binding signal (z-score) [35]: -0.059
- glycan array binding signal (z-score) [36]: 0.066
- glycan array binding signal (z-score) [37]: -0.114
- glycan array binding signal (z-score) [38]: 1.43
- glycan array binding signal (z-score) [39]: -0.257
- glycan array binding signal (z-score) [40]: -0.021
